Reference: patent US5830703A, “DNA encoding adrenomedullin” (Shionogi & Co., Ltd., priority 1993, dated 1998)
Part of at least one peptide drawing is inferred or uncertain, most often the ends. Some compounds share one wording; it may come from a single statement.

Test system: antiserum against peptide [40-52]NH2
Assay: RIA utilizing an antibody against the C-terminal peptide fragment of adrenomedullin
Assay type: binding, rabbit
Settings: antiserum raised against peptide [40-52]NH2

CC[C@H](C)[C@H](NC(=O)[C@H](C)NC(=O)CNC(=O)[C@H](Cc1ccccc1)NC(=O)[C@H](CC(N)=O)NC(=O)[C@H](CC(N)=O)NC(=O)[C@H](CO)NC(=O)[C@H](CO)NC(=O)[C@H](Cc1c[nH]cn1)NC(=O)[C@@H](NC(=O)[C@H](CC(C)C)NC(=O)[C@H](Cc1ccccc1)NC(=O)[C@H](CC(N)=O)NC(=O)[C@H](C)NC(=O)[C@H](CC(C)C)NC(=O)[C@H](CCCNC(=N)N)NC(=O)[C@H](CCC(N)=O)NC(=O)[C@@H](NC(=O)[C@H](C)NC(=O)[C@@H]1CSSC[C@H](NC(=O)[C@@H](N)CCCCN)C(=O)N[C@@H](CC(N)=O)C(=O)N[C@@H]([C@@H](C)O)C(=O)N[C@@H](C)C(=O)N[C@@H]([C@@H](C)O)C(=O)N1)[C@@H](C)O)C(C)C)C(=O)N[C@@H](CC(C)C)C(=O)N[C@@H](CO)C(=O)N[C@@H](CO)C(=O)N[C@H](C(=O)N[C@@H](CC(N)=O)C(=O)N[C@H](C(=O)NCC(=O)N[C@@H](CO)C(=O)N[C@@H](CC(N)=O)C(=O)N[C@H](C(=O)N[C@@H](Cc1ccc(O)cc1)C(N)=O)[C@@H](C)O)C(C)C)[C@@H](C)O [amylin, reference compound]
reactivity / crossreactivity of the antiserum: no crossreactivity
